{"source": "PubChem BioAssay AID504774 (Drosophila RNAi Screening Center, 2011)", "aim": "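Fly genes whose loss alters survival after alkylation damage to DNA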 (primary screen)", "system": "Drosophila Kc167 cells", "reagents": "long dsRNA against Drosophila genes, about 0.25 µg dsRNA per well", "time to read-out": "about 6 days: 3 days knock-down, then 3 days with or without MMS", "treatment": "methyl methanesulphonate 0.004% (w/v) for 3 days after knock-down", "read-out": "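ATP-dependent luminescence as a measure of live cells in MMS-exposed wells, quantile normalised within each plate, with replicate values also given as a mean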", "reading the numbers": "mean viability with MMS and viability with MMS: higher = more surviving cells after MMS", "note": "The deposit covers about 23,000 reagents; shown is a random part of those that have a named target and a result. 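Values are quantile-normalised luminescence on an arbitrary scale; higher means more cells surviving MMS.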 Further read-outs or replicates are left out here. No sequences are given here."}
{"gene": "CG14011", "amplicon": "DRSC02343", "mean viability with MMS": 3.45e6, "viability with MMS, replicate 1": 3.90e6}
{"gene": "Lip2", "amplicon": "DRSC02577", "mean viability with MMS": 3.57e6, "viability with MMS, replicate 1": 4.15e6}
{"gene": "Lip2", "amplicon": "DRSC02578", "mean viability with MMS": 3.52e6, "viability with MMS, replicate 1": 4.16e6}
{"gene": "CG10333", "amplicon": "DRSC02036", "mean viability with MMS": 3.22e6, "viability with MMS, replicate 1": 3.65e6}
{"gene": "r", "amplicon": "DRSC19813", "mean viability with MMS": 3.59e6, "viability with MMS, replicate 1": 4.15e6}
{"gene": "r", "amplicon": "DRSC19814", "mean viability with MMS": 3.55e6, "viability with MMS, replicate 1": 4.04e6}
{"gene": "CG30338", "amplicon": "DRSC05166", "mean viability with MMS": 3.46e6, "viability with MMS, replicate 1": 3.98e6}
{"gene": "Blm", "amplicon": "DRSC16911", "mean viability with MMS": 3.47e6, "viability with MMS, replicate 1": 3.92e6}
{"gene": "Got2", "amplicon": "DRSC00643", "mean viability with MMS": 3.60e6, "viability with MMS, replicate 1": 4.02e6}
{"gene": "CG6503", "amplicon": "DRSC16056", "mean viability with MMS": 3.25e6, "viability with MMS, replicate 1": 3.71e6}
{"gene": "path", "amplicon": "DRSC10361", "mean viability with MMS": 3.53e6, "viability with MMS, replicate 1": 4.01e6}
{"gene": "ASPP", "amplicon": "DRSC04305", "mean viability with MMS": 3.00e6, "viability with MMS, replicate 1": 3.59e6}
{"gene": "ASPP", "amplicon": "DRSC23069", "mean viability with MMS": 3.13e6, "viability with MMS, replicate 1": 3.43e6}
{"gene": "Rnmt", "amplicon": "DRSC03558", "mean viability with MMS": 3.53e6, "viability with MMS, replicate 1": 3.93e6}
{"gene": "CG5758", "amplicon": "DRSC02889", "mean viability with MMS": 3.31e6, "viability with MMS, replicate 1": 3.78e6}
{"gene": "CG5758", "amplicon": "DRSC02890", "mean viability with MMS": 3.46e6, "viability with MMS, replicate 1": 3.96e6}
{"gene": "CG15888", "amplicon": "DRSC15125", "mean viability with MMS": 3.56e6, "viability with MMS, replicate 1": 4.01e6}
{"gene": "Caper", "amplicon": "DRSC02137", "mean viability with MMS": 3.12e6, "viability with MMS, replicate 1": 3.38e6}
{"gene": "Elp1", "amplicon": "DRSC14250", "mean viability with MMS": 3.59e6, "viability with MMS, replicate 1": 4.12e6}
{"gene": "CG10462", "amplicon": "DRSC02058", "mean viability with MMS": 3.44e6, "viability with MMS, replicate 1": 3.89e6}
{"gene": "Plc21C", "amplicon": "DRSC00773", "mean viability with MMS": 3.32e6, "viability with MMS, replicate 1": 3.83e6}
{"gene": "CG33635", "amplicon": "DRSC00006", "mean viability with MMS": 3.49e6, "viability with MMS, replicate 1": 4.06e6}
{"gene": "Ssl", "amplicon": "DRSC04657", "mean viability with MMS": 3.53e6, "viability with MMS, replicate 1": 4.05e6}
{"gene": "alphaTub84B", "amplicon": "DRSC12622", "mean viability with MMS": 3.28e6, "viability with MMS, replicate 1": 3.80e6}
{"gene": "CtsL1", "amplicon": "DRSC05462", "mean viability with MMS": 3.44e6, "viability with MMS, replicate 1": 4.01e6}
{"gene": "CtsL1", "amplicon": "DRSC07363", "mean viability with MMS": 3.58e6, "viability with MMS, replicate 1": 4.16e6}
{"gene": "CG1827", "amplicon": "DRSC06719", "mean viability with MMS": 3.58e6, "viability with MMS, replicate 1": 4.07e6}
{"gene": "Zmynd10", "amplicon": "DRSC09826", "mean viability with MMS": 3.61e6, "viability with MMS, replicate 1": 3.96e6}
{"gene": "Sf3b1", "amplicon": "DRSC00535", "mean viability with MMS": 2.90e6, "viability with MMS, replicate 1": 3.41e6}
{"gene": "ifc", "amplicon": "DRSC03549", "mean viability with MMS": 3.59e6, "viability with MMS, replicate 1": 3.95e6}
{"gene": "Dpm1", "amplicon": "DRSC02018", "mean viability with MMS": 3.51e6, "viability with MMS, replicate 1": 4.03e6}
{"gene": "CG2747", "amplicon": "DRSC15450", "mean viability with MMS": 3.43e6, "viability with MMS, replicate 1": 3.95e6}
{"gene": "kon", "amplicon": "DRSC02033", "mean viability with MMS": 3.48e6, "viability with MMS, replicate 1": 3.82e6}
{"gene": "CG42588", "amplicon": "DRSC09820", "mean viability with MMS": 3.46e6, "viability with MMS, replicate 1": 3.88e6}
{"gene": "CG42588", "amplicon": "DRSC22121", "mean viability with MMS": 3.50e6, "viability with MMS, replicate 1": 3.93e6}
{"gene": "CG7974", "amplicon": "DRSC08607", "mean viability with MMS": 3.56e6, "viability with MMS, replicate 1": 4.01e6}
{"gene": "sha", "amplicon": "DRSC06331", "mean viability with MMS": 3.54e6, "viability with MMS, replicate 1": 4.00e6}
{"gene": "Ntf-2", "amplicon": "DRSC20552", "mean viability with MMS": 3.76e6, "viability with MMS, replicate 1": 4.23e6}
{"gene": "SmydA-5", "amplicon": "DRSC04867", "mean viability with MMS": 3.43e6, "viability with MMS, replicate 1": 3.94e6}
{"gene": "drpr", "amplicon": "DRSC08143", "mean viability with MMS": 3.57e6, "viability with MMS, replicate 1": 4.04e6}
{"gene": "drpr", "amplicon": "DRSC08525", "mean viability with MMS": 3.57e6, "viability with MMS, replicate 1": 4.08e6}
{"gene": "CG3008", "amplicon": "DRSC00560", "mean viability with MMS": 3.55e6, "viability with MMS, replicate 1": 4.16e6}
{"gene": "Droj2", "amplicon": "DRSC16450", "mean viability with MMS": 2.98e6, "viability with MMS, replicate 1": 3.61e6}
{"gene": "CG31454", "amplicon": "DRSC14365", "mean viability with MMS": 3.74e6, "viability with MMS, replicate 1": 4.20e6}
{"gene": "CG31454", "amplicon": "DRSC22801", "mean viability with MMS": 3.32e6, "viability with MMS, replicate 1": 3.91e6}

Sorted by “mean viability with MMS” (low to high): 4 of the entries above.
{"gene": "CG2747", "amplicon": "DRSC15450", "mean viability with MMS": 3.43e6, "viability with MMS, replicate 1": 3.95e6}
{"gene": "CG42588", "amplicon": "DRSC09820", "mean viability with MMS": 3.46e6, "viability with MMS, replicate 1": 3.88e6}
{"gene": "kon", "amplicon": "DRSC02033", "mean viability with MMS": 3.48e6, "viability with MMS, replicate 1": 3.82e6}
{"gene": "Dpm1", "amplicon": "DRSC02018", "mean viability with MMS": 3.51e6, "viability with MMS, replicate 1": 4.03e6}
